Laboratory results as given in the supplement of paper PMC3334620.
In all, about 33,000 sequences were measured (“E-score (-0.5 to 0.5)”: median about -0.0059, highest 2% from about 0.26 on). The list shows a part of the results.

biological target: T1, Cin5 (UniProt P40917); test: PBM E-score (8-mer binding enrichment) (E-score (-0.5 to 0.5)); higher = stronger / more preferred TF binding; details: protein concentration: 100 nM; construct: GST-full length
T1 sequence: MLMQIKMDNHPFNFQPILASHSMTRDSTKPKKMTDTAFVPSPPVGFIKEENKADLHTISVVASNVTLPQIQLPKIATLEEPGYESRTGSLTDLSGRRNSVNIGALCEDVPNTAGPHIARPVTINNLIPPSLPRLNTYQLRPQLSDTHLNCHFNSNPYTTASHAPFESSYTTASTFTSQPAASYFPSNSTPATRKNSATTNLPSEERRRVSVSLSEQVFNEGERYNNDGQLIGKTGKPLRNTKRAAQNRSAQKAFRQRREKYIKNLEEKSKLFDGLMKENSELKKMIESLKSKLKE
Summary of the method: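 Full-length yeast transcription factors or their DNA-binding domains, GST-tagged and expressed with PURExpress, were applied at about 100-200 nM to universal all-10-mer Agilent arrays. These arrays had been made double-stranded by primer extension on fresh or once-stripped slides. Detection used fluorescent anti-GST, normalisation used masliner, and E-scores for ungapped eight-base words pooled with reverse complements came from the Universal PBM Analysis Suite.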

First: GTCTTTGA
Second: AGCAGACG
The “PBM E-score” value of the first is lower: -0.241 for the first, 0.0437 for the second.

First: ACGTTTAT
Second: TAGGTACA
The “PBM E-score” value of the first is higher: 0.1 for the first, -0.146 for the second.

Going from CAACATCA to CCTGCGGA, the “PBM E-score” value falls from 0.201 to -0.0122.

First: ACCCCCCC
Second: ACCCCGGC
The “PBM E-score” value of the first is lower: -0.492 for the first, -0.182 for the second.

Compared with CTCAAGTA, AGGCCAGC is lower in “PBM E-score” value: -0.0379 for the first, -0.254 for the second.

Compared with GATAACGC, CAGATACA is higher in “PBM E-score” value: -0.00744 for the first, 0.119 for the second.

Compared with CGATAACG, CATGCATC is higher in “PBM E-score” value: 0.00767 for the first, 0.169 for the second.

Compared with ACCAAAAT, ACTCTGGG is lower in “PBM E-score” value: 0.0941 for the first, -0.0166 for the second.

First: AGCGCTCG
Second: CCTCGCAC
The “PBM E-score” value of the first is lower: -0.191 for the first, -0.0617 for the second.

Compared with TCTGACCA, CCCTCGGA is lower in “PBM E-score” value: 0.0096 for the first, -0.16 for the second.

First: CAGGCCGA
Second: ACAACGAT
The “PBM E-score” value of the first is lower: -0.0921 for the first, 0.058 for the second.

Going from CTTCTCAC to CGACCCAG, the “PBM E-score” value falls from 0.0781 to -0.145.

Going from AGCCGGCG to ACACGACA, the “PBM E-score” value rises from -0.032 to 0.207.

First: GTAGAGCA
Second: TCCGTAAA
The “PBM E-score” value of the first is lower: -0.136 for the first, -0.0225 for the second.

Compared with AAATCGAC, AATTGGGT is higher in “PBM E-score” value: 0.0909 for the first, 0.319 for the second.

Going from GAGAGATC to TCGATGCA, the “PBM E-score” value rises from 0.107 to 0.152.

First: CGTAGCAC
Second: AAACGCTC
The “PBM E-score” value of the first is higher: -0.0485 for the first, -0.173 for the second.

Compared with CTGACGTC, ATCGCCCA is lower in “PBM E-score” value: 0.035 for the first, -0.11 for the second.

Compared with AGACAAGC, CTTCGGAC is lower in “PBM E-score” value: -0.013 for the first, -0.0638 for the second.

First: TGATACCA
Second: GCGGCGAC
The “PBM E-score” value of the first is higher: 0.101 for the first, 0.0144 for the second.

Going from ACAACCAC to CCACCGGA, the “PBM E-score” value falls from 0.0998 to 0.0953.

First: ATCATTGC
Second: ATGGATTA
The “PBM E-score” value of the first is lower: 0.0191 for the first, 0.0354 for the second.

First: ACATGGCT
Second: CCTCATAA
The “PBM E-score” value of the first is lower: -0.0786 for the first, -0.0599 for the second.

Compared with AGTTGGTG, AATCGTCC is higher in “PBM E-score” value: -0.0389 for the first, 0.0766 for the second.

First: CCAGTGAG
Second: CCTGTCCA
The “PBM E-score” value of the first is higher: -0.2 for the first, -0.264 for the second.

First: CTAACATC
Second: ACAAGGCT
The “PBM E-score” value of the first is higher: 0.034 for the first, -0.224 for the second.

Compared with CCACCGCG, TACGTCGA is lower in “PBM E-score” value: 0.0785 for the first, -0.0577 for the second.

First: TACTCCGA
Second: CTGGGATC
The “PBM E-score” value of the first is higher: 0.0999 for the first, -0.242 for the second.

First: GCCCGGAA
Second: ACGTCCTG
The “PBM E-score” value of the first is higher: -0.0145 for the first, -0.179 for the second.

Compared with CAGAATAG, GCGTTGGA is lower in “PBM E-score” value: 0.0117 for the first, -0.18 for the second.

First: ATGAGCCC
Second: CCAGCCTC
The “PBM E-score” value of the first is higher: -0.154 for the first, -0.246 for the second.

Going from CATTATAC to CTCATTCA, the “PBM E-score” value falls from 0.287 to 0.0891.

Compared with CTTAAGAA, GAGCCTGC is lower in “PBM E-score” value: 0.0235 for the first, -0.25 for the second.

First: AAACGGAC
Second: TCATGTCA
The “PBM E-score” value of the first is lower: -0.129 for the first, 0.117 for the second.

First: CCAAGTCC
Second: AAGGCGCC
The “PBM E-score” value of the first is lower: -0.121 for the first, -0.0857 for the second.

Compared with TAAAGCCA, CCGGGGGA is lower in “PBM E-score” value: -0.0479 for the first, -0.227 for the second.

Going from AGACAGGA to GAGGCATC, the “PBM E-score” value falls from -0.0938 to -0.276.

Going from ATCGCTGC to ATGCAATG, the “PBM E-score” value rises from 0.0127 to 0.035.

Going from GAAACGCC to AGTTTCGG, the “PBM E-score” value falls from 0.114 to 0.0242.

Compared with TGCAGCAA, GGGGTTTA is lower in “PBM E-score” value: 0.0141 for the first, -0.169 for the second.

Going from AAGGGGCA to ACCCTACT, the “PBM E-score” value rises from -0.183 to -0.0325.

Compared with CTGATCTC, CAAATCTC is higher in “PBM E-score” value: 0.00613 for the first, 0.0717 for the second.

First: GCACAACC
Second: ATTATGGA
The “PBM E-score” value of the first is lower: -0.128 for the first, 0.131 for the second.

First: AAATGGGT
Second: CAGTTGCC
The “PBM E-score” value of the first is higher: 0.135 for the first, -0.0581 for the second.

First: CAAGCTGA
Second: CCCTGTGC
The “PBM E-score” value of the first is higher: 0.233 for the first, -0.18 for the second.

Going from GATGTTGA to CTTCCTTA, the “PBM E-score” value falls from 0.113 to -0.0223.

Going from GATTCTGA to ATCTTTAC, the “PBM E-score” value rises from -0.157 to 0.104.

First: CAATACTG
Second: AACGTAAG
The “PBM E-score” value of the first is lower: -0.0857 for the first, 0.274 for the second.

First: CTTGCAGC
Second: GCGTACAC
The “PBM E-score” value of the first is lower: -0.192 for the first, -0.123 for the second.

Compared with ATCGGATG, GCAAGCTA is lower in “PBM E-score” value: 0.0979 for the first, -0.0898 for the second.

Going from ATTAGATC to CACCTACA, the “PBM E-score” value falls from 0.145 to -0.127.

First: AACTGACT
Second: ACGATCCG
The “PBM E-score” value of the first is lower: -0.0943 for the first, 0.0588 for the second.

Compared with ATTGCGTG, ACCACAAG is lower in “PBM E-score” value: -0.00281 for the first, -0.117 for the second.

First: CGGTCCGC
Second: ATGTCGAG
The “PBM E-score” value of the first is lower: -0.178 for the first, -0.0728 for the second.

Compared with GGTCGAGA, TTAGCTAA is higher in “PBM E-score” value: -0.196 for the first, 0.343 for the second.

First: ACTACAAA
Second: AAGTAATA
The “PBM E-score” value of the first is lower: 0.187 for the first, 0.247 for the second.

First: AGTTCAAT
Second: CCAAGAAC
The “PBM E-score” value of the first is higher: 0.0142 for the first, -0.132 for the second.

First: ACCTAATG
Second: CCGCCTAC
The “PBM E-score” value of the first is lower: -0.134 for the first, 0.0336 for the second.

Compared with GTCCACAA, GCACACAC is higher in “PBM E-score” value: -0.125 for the first, -0.0905 for the second.

Going from CCCAAAAA to TAATCGTA, the “PBM E-score” value rises from -0.0897 to 0.247.

Compared with TCCTGAGA, AGAGGATC is higher in “PBM E-score” value: -0.137 for the first, -0.116 for the second.

Going from GTATGCCA to AACGCGGT, the “PBM E-score” value rises from -0.145 to -0.0452.

Going from CAATCTTA to ACTTTCCC, the “PBM E-score” value falls from 0.0906 to -0.0967.

Compared with CTTGTTTA, CCGTGATC is lower in “PBM E-score” value: -0.0376 for the first, -0.0747 for the second.

Compared with ACCTTGCA, ACCAGCGG is higher in “PBM E-score” value: -0.163 for the first, -0.124 for the second.

Compared with TCAACGAA, AGCGAAAA is higher in “PBM E-score” value: -0.0121 for the first, 0.0839 for the second.

Compared with ATGGCCAG, AGGTAACT is higher in “PBM E-score” value: 0.0918 for the first, 0.113 for the second.

First: CCTCAAGA
Second: CCCTTTCC
The “PBM E-score” value of the first is higher: -0.0822 for the first, -0.307 for the second.

Going from ACCAACAA to AAAGAGAA, the “PBM E-score” value falls from 0.167 to 0.104.

First: AGTATGTC
Second: GCCCAAAC
The “PBM E-score” value of the first is higher: 0.149 for the first, -0.0563 for the second.

First: GAAATATC
Second: AGCCGGCC
The “PBM E-score” value of the first is higher: 0.111 for the first, 0.0774 for the second.

Compared with ACCTACTC, CACGGTCA is lower in “PBM E-score” value: 0.0706 for the first, -0.12 for the second.

Compared with AAGTCAGA, AAGCTTGA is higher in “PBM E-score” value: 0.0006 for the first, 0.0619 for the second.

Compared with ATAAGCTA, CGCCAGTC is lower in “PBM E-score” value: 0.2 for the first, -0.182 for the second.

First: ACTTGCAG
Second: CTTAACCC
The “PBM E-score” value of the first is higher: -0.0905 for the first, -0.21 for the second.

Compared with AAAGTCTT, TTGAAAAA is higher in “PBM E-score” value: -0.0653 for the first, 0.101 for the second.

First: AGAGAAGA
Second: CCCCCAGA
The “PBM E-score” value of the first is higher: 0.00912 for the first, -0.475 for the second.

Going from ACTCTACT to ACGACGAA, the “PBM E-score” value rises from 0.0776 to 0.0953.

Going from ATTGCGTC to CACCCAAC, the “PBM E-score” value falls from 0.128 to -0.03.

Compared with AACTTATG, CGTAATTC is higher in “PBM E-score” value: 0.153 for the first, 0.228 for the second.

Compared with TACCCGTA, CTCCTACC is lower in “PBM E-score” value: -0.00613 for the first, -0.304 for the second.

Compared with ATATCGGA, CAGCCTGG is lower in “PBM E-score” value: 0.0984 for the first, -0.0233 for the second.

Compared with GTACGGAA, AGACTGTG is lower in “PBM E-score” value: 0.175 for the first, -0.116 for the second.

Compared with AGTTGTTC, CAAAAAGG is lower in “PBM E-score” value: 0.0659 for the first, -0.138 for the second.

Compared with ATATCCGC, CTAATGTC is higher in “PBM E-score” value: 0.0849 for the first, 0.121 for the second.

First: ATCAGCCA
Second: TACGGGGA
The “PBM E-score” value of the first is higher: -0.0446 for the first, -0.116 for the second.
